This assay in a line: qHTS Assay to Find Inhibitors of Chronic Active B-Cell Receptor Signaling. To be noted: ABC-DLBCL IkBa-CBG/CBR reporter, luminescence ratio (green luciferase fused to IkBa over red control in TMD8 lymphoma cells), 4 h. The essentials: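 Concentration-response series (up to 46 uM) were applied to TMD8 dual-reporter cells for 4 h at 37C with doxycycline. Green/red ratio, after filter-overlap correction, defined %Activity; red signal alone was normalised to basal cells and zero luminescence.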
On the technique in general: Quantitative high-throughput screening tests each substance at several concentrations.

The mark [1] stands for this setting: measured here: CBR red luminescence, cell number.

The AC50 is the midpoint of the concentration-response curve, whichever way the signal moves.

This is one part of the list. Further columns of the screen follow, without active or inactive calls. Compounds called inactive in the main read-out are mostly missing here. Potencies come from curve fits of mixed quality, noted in brackets.

For the compound `Oc1ccc(Br)cc1-c1ccnn1-c1ccccc1`, under setting [1], the AC50 is 35.5 µM [rising, single point].
For `Cc1cc(/C=C(/C#N)c2nc3ccccc3[nH]2)c(C)n1-c1ccccc1C(=O)O`, the half-maximal activity concentration (AC50) under setting [1] was 22.4 µM [falling, single point].
Still for that read-out and setting: the result for `COc1cccc(/C=C/C(=O)c2ccc(NS(=O)(=O)c3ccc(C)cc3)cc2)c1` reads 18.4 µM [falling, single point]; that for `COc1cccc(C(=O)Nc2ccc(NC(=O)C3CCCCC3)nc2)c1`, 0.112 µM [rising, full curve, poor fit]; that for `Cc1cccc(C2CC3(CC(C)(C)NC(=S)N3)Oc3cc(O)ccc32)c1` (stereo not drawn), 14.1 µM [falling, partial curve].
Take `COc1ccccc1/C=C\C=N\NC(=O)c1ccco1`: the AC50 under setting [1] was 2.24 µM [falling, full curve].
Regarding `O=C(Nc1ccc2c(c1)OCO2)C1CC(c2ccccc2O)=NO1` (stereo not drawn), the AC50 under setting [1] was 14.1 µM [falling, single point].
The same measure, in the same setting: to `CCOc1ccc(C(=O)Nc2cccc(NC(=O)c3cccs3)c2)cc1[N+](=O)[O-]` belongs 7.31 µM [falling, partial curve]; to `CCC(=O)c1ccc2c(c1)OCCO2`, 6.31 µM [rising, single point].
Consider `COc1cc2c(cc1NC(=O)C(C)Sc1cccc[n+]1[O-])oc1ccccc12` (stereo not drawn), for which the AC50 under setting [1] was 25.9 µM [falling, single point].
For `COC(=O)CN1C(c2cccc(Cl)c2)=Nc2ccc(Cl)cc2C1c1ccccc1` (stereo not drawn), the AC50 under setting [1] is 29.1 µM [falling, single point].
On to `O=C(NC1CCc2ccccc21)c1cc(COc2c(F)cccc2F)on1` (stereo not drawn), for which the half-maximal activity concentration (AC50) under setting [1] is 7.94 µM [falling, partial curve, poor fit].
In the case of `CCOC(=O)C1=C(C)c2ccccc2N(C(=O)OC)C1(C)C(=O)OCC` (stereo not drawn), for the setting “measured here: IkBa-CBG green luminescence”, the concentration at half-maximal activity (AC50) is 20.6 µM [falling, partial curve].
On to `O=C(/C=C/c1ccco1)OCC(=O)c1ccc(OC(F)F)cc1`, for which, under setting [1], the concentration at half-maximal activity (AC50) was 8.2 µM [rising, partial curve, poor fit].
Regarding `Cc1ccc(C)c2[nH]c(=O)c(CN(Cc3ccco3)C(=O)Nc3ccccc3)cc12`, under setting [1], the concentration at half-maximal activity (AC50) was 12.6 µM [falling, partial curve].
Same read-out and setting: the result for `Nc1ccc(SCc2nc3cccc4c3n2CCC4)cc1` reads 11.2 µM [rising, single point]; that for `COc1ccc(NC(=O)C2CCCCN2S(=O)(=O)c2ccc(F)cc2)c(OC)c1` (stereo not drawn), 15.8 µM [falling, partial curve, poor fit].
For `CCOc1ccccc1C(=O)Nc1cc(OC)ccc1OC`, the concentration at half-maximal activity (AC50) under setting [1] is 2.82 µM [falling, full curve, poor fit].

The record behind these values is PubChem BioAssay AID493014 (National Center for Advancing Translational Sciences (NCATS), 2011).
